# Measurements reported in PubChem BioAssay AID652259 (Drosophila RNAi Screening Center, 2013).
# Test: 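Identify new Wingless signalling regulators in fly cells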 (primary screen)
# Cell system: Drosophila clone 8 imaginal disc epithelial cells
# Reagent: long dsRNA against Drosophila genes
# Challenge: pathway stimulated by co-transfected Wingless expression plasmid
# Measurement: 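Firefly luciferase from a tcf-site Wingless reporter, measured alongside co-transfected Renilla luciferase that tracks transfection; pathway stimulated by a Wingless plasmid; the firefly-to-Renilla ratio is not deposited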
# Scale: firefly reporter light: higher = more Wg reporter light, before normalisation; Renilla control light: higher = more transfected or surviving cells
# Call rule: 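a knock-down is a candidate when at least two out of four statistical tests show it departing from its plate mean; one test alone signals a weak candidate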
# Meaning of the calls: active = candidate regulator (raises or lowers reporter); inactive = not a candidate
# The screen tested about 22,000 reagents; this is a random part of those that have a named target and a result. Of all reagents, 233 (1.1%) are marked active. 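Light values are raw, unnormalised plate reads; the ratio scores behind the reporter calls were not deposited.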 The numbers tell different reagents against one gene apart. A plus sign joins genes that one reagent is predicted to hit. Not given: the amount of reagent, the time to read-out, the dose of the treatment.
predicted target,dsRNA no.,"reporter change call, replicate 1","firefly reporter light, replicate 1","firefly reporter light, replicate 2","Renilla control light, replicate 1","Renilla control light, replicate 2",outcome
CG12347,1,,15386,,3605,,inactive
CG4984 + CG4975,1,,6618,,2203,,inactive
CG4984 + CG4975,2,,19248,,5485,,inactive
AP-1-2beta,1,,27257,,12640,,inactive
CG1671,1,,6153,,1512,,inactive
Bap60,1,,3256,10960,485,1597,inactive
CG33758,1,,14488,,7517,,inactive
Pgam5-2,1,,1798,6022,599,2312,inactive
Smr,1,Wg reporter activity raised,3020,7409,240,544,active
Smr,2,Wg reporter activity raised,26091,,3472,,inactive
ana1,1,,4432,10627,1957,4457,inactive
ana1,2,,8.13e5,7.63e5,4.34e5,3.36e5,inactive
mRpS5,1,,1.03e6,7.14e5,8.03e5,4.63e5,inactive
CG31776,1,,2501,8214,1129,2905,inactive

Not a retest: 3 of the entries above.
predicted target,dsRNA no.,"reporter change call, replicate 1","firefly reporter light, replicate 1","firefly reporter light, replicate 2","Renilla control light, replicate 1","Renilla control light, replicate 2",outcome
Bap60,1,,3256,10960,485,1597,inactive
CG33758,1,,14488,,7517,,inactive
Pgam5-2,1,,1798,6022,599,2312,inactive

Additional entries:
predicted target,dsRNA no.,"reporter change call, replicate 1","firefly reporter light, replicate 1","firefly reporter light, replicate 2","Renilla control light, replicate 1","Renilla control light, replicate 2",outcome
Mettl2,1,,10313,,3041,,inactive
Ddx1,1,,4919,,2307,,inactive
CG10562,1,,3504,5376,1860,864,inactive
kat-60L1,1,,9426,,4034,,inactive
CtIP,1,,23008,,6304,,inactive
Strip,1,,4729,,1984,,inactive
CG31288,1,,19844,,15875,,inactive
Ald2,1,Wg reporter activity raised,28493,,4219,,active
Ald2,2,,19815,,16217,,inactive
CG14074,1,,5170,,2214,,inactive
CG30378,1,,11836,,6754,,inactive
Sec3,1,,2529,,1200,,inactive
CheB53a,1,,5026,,1878,,inactive
GstT1,1,,2698,8883,1136,3524,inactive
CG3397,1,,6139,,2896,,inactive
